The values that follow come from PubChem BioAssay AID2685 (National Center for Advancing Translational Sciences (NCATS), 2010).

A short description of the experiment: qHTS Assay for Lipid Storage Modulators in Drosophila S3 Cells.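 On cell number change: cells counted by Cell Tracker Red CMTPX staining in the red channel.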 Particulars: BODIPY lipid droplet fluorescence, 18-24 h; for cell number change: measured here: cell count max response, cells fed with added oleic acid. In a few lines:
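Drosophila S3 cells loaded with oleic acid (400 uM, as added) and compounds at several concentrations; lipid droplets imaged by 488-nm laser-scanning cytometry, 500–530 nm intensity and object ratio to cell channel. Percent activity normalized to 20 uM Triacsin C.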

Setting [1] is: measured here: lipid fluorescence (Fed channel) AC50, cells fed with added oleic acid.
Where [2] appears, read: measured here: cell number channel AC50, cells fed with added oleic acid.

For orientation: AC50 means the concentration giving half of the maximal activity seen. Lower therefore signals greater potency.

The list shows a part of the results. The main result of the screen is listed elsewhere. These columns were measured beside it and carry no call. Compounds called inactive in the main read-out are mostly missing here. Words in brackets tell the shape of the fitted curve; partial curves, single points and poor fits give uncertain potencies.

With `COc1ccc(C(=O)N/N=C/c2ccccc2OC(=O)c2ccccc2)cc1`, the cell number change was -0.794%. The AC50 under setting [1] is 29.1 µM [falling, single point].
Regarding `O=C(Nc1cc(C(F)(F)F)ccc1N1CCOCC1)C1=NN(c2ccccc2)C(=O)CC1`, the cell number change was -10.9%. Besides, the AC50 under setting [1] is 18.4 µM [falling, partial curve].
For the compound `Cc1ccc(NC(=O)CCc2nc(-c3cccs3)no2)c(Br)c1`, the AC50 under setting [1] is 6.51 µM [rising, partial curve].
On to `COc1ccc2c(-c3cccnc3)cc(=O)[nH]c2c1`, for which the concentration at half-maximal activity (AC50) runs as follows: under setting [2], 6.51 µM [rising, single point]; under setting [1], 6.51 µM [rising, partial curve].
For `Cc1cc(Cl)ccc1OCCCC(=O)N1CCCCC1`, the cell number change was -7.5%. Moreover, the AC50 under setting [2] was 2.91 µM [rising, single point]. In addition, the half-maximal activity concentration (AC50) under setting [1] is 3.26 µM [rising, single point].
Regarding `CCOc1cc(N2CCOCC2)c(OCC)cc1NC(=O)Cc1cccc(OC)c1`, the cell number change is -5.16%. For the same compound, the AC50 under setting [1] is 0.116 µM [rising, full curve, poor fit].
In the case of `CS(=O)(=O)N1CCc2cc(S(=O)(=O)NCCNS(=O)(=O)c3ccc4c(c3)CCN4S(C)(=O)=O)ccc21`, the cell number change is -56.4%. Under setting [2], the concentration at half-maximal activity (AC50) was 0.103 µM [falling, full curve]. Moreover, the half-maximal activity concentration (AC50) under setting [1] is 0.184 µM [falling, full curve].
As to `CC(/C=C1\SC(=S)N(NC(=O)c2cccc(O)c2)C1=O)=C\c1ccccc1`, the cell number change amounted to 50.1%. The half-maximal activity concentration (AC50) under setting [2] was 6.51 µM [rising, single point]. Further, under setting [1], the AC50 was 32.6 µM [rising, single point].
Take `COC(=O)c1ccc(/C=C2/SC(=S)N(CCCC(=O)Nc3ccccn3)C2=O)cc1`: the cell number change is -1.72%. For the same compound, the concentration at half-maximal activity (AC50) under setting [1] was 1.16 µM [rising, partial curve].
For `Cc1ccc(-c2noc(Cn3nc(C(=O)O)c4ccccc4c3=O)n2)cc1`, the cell number change stood at 1.32%. For the same compound, the half-maximal activity concentration (AC50) under setting [1] was 1.26 µM [falling, full curve, poor fit].
In the case of `Cc1ccccc1NC(=S)NNC(=O)c1cccc(Br)c1`, the cell number change was determined as 44.7%. For the same compound, the AC50 under setting [2] is 23.1 µM [rising, single point].
For the compound `FC(F)(F)c1cc(Cl)c2nnc(C(F)(F)Cl)n2c1`, the cell number change is -28.9%. In addition, the half-maximal activity concentration (AC50) under setting [2] is 0.184 µM [falling, full curve]. In addition, the AC50 under setting [1] is 0.146 µM [falling, full curve, poor fit].
As to `CCC(=O)N(CC)c1nc(-c2ccc(OC)cc2)cs1`, the cell number change is -18.5%. Besides, the AC50 under setting [1] was 32.6 µM [falling, partial curve, poor fit].
For `O=C(CS(=O)Cc1ccccc1Cl)Nc1ccccc1Cl` (stereo not drawn), under setting [1], the AC50 was 4.61 µM [falling, single point].
As to `COc1ccc(CCNC(=O)COc2cc(O)c3c(c2)OC(C)(C)CC3=O)cc1`, the cell number change is -2.27%. Besides, the AC50 under setting [1] was 16.4 µM [falling, single point].
In the case of `Cc1ccc(NC(=O)Cn2nnc(C(=O)Nc3ccc(F)c(Cl)c3)c2N)cc1`, the cell number change came to 53.4%. Also, the concentration at half-maximal activity (AC50) under setting [2] was 13 µM [rising, partial curve, poor fit].
Take `Cc1cc(C)c(NC(=O)CN(C)C(=O)CNC(=O)c2cccs2)c(C)c1`: the cell number change was -8.56%. In addition, the AC50 under setting [1] is 16.4 µM [falling, partial curve].
In the case of `C=CCNS(=O)(=O)c1cc(S(=O)(=O)NCC=C)c(OC)cc1OC`, the cell number change is -50.2%. Besides, the AC50 under setting [2] is 0.164 µM [falling, full curve, poor fit]. Further, under setting [1], the half-maximal activity concentration (AC50) is 0.13 µM [falling, full curve].
With `O=Cc1ccc(Sc2nnc(-c3ccccc3)o2)c([N+](=O)[O-])c1`, the cell number change is -1.9%. Under setting [1], the AC50 was 6.51 µM [falling, single point].
As for `CC(=O)c1cc(C)ccc1OC(=O)c1cccnc1`, the cell number change is -2.41%. The AC50 under setting [1] was 1.84 µM [rising, partial curve].
In the case of `COC(=O)C1=C(CS(=O)(=O)c2cc(OC)ccc2OC)NC(=O)NC1c1ccc(O)c(OC)c1` (stereo not drawn), the cell number change worked out at 15.8%.
Still for that read-out and setting: then `CC1CCN(C(=O)CSc2nnc(-c3ccccc3F)o2)CC1`, with 6.41%.
As to `O=C(CNC1CCCCCC1)Nc1ccccc1N1CCCCC1`, the cell number change was -25%. The AC50 under setting [1] was 23.1 µM [falling, partial curve, poor fit].
As for `CCN(CC)S(=O)(=O)c1cccc(C(=O)c2c(C)cc3ccccn23)c1`, the cell number change worked out at 35.4%. Also, the half-maximal activity concentration (AC50) under setting [2] was 11.6 µM [rising, partial curve, poor fit]. Also, the AC50 under setting [1] is 18.4 µM [rising, partial curve].
`Cc1cccc(OCCn2cc(/C=N/NC(=O)c3ccncc3)c3ccccc32)c1`: the cell number change was -9.21%.
With `CN(C)CCSc1nc(-c2ccccc2)nc2c1COC(C)(C)C2`, the cell number change is -10.3%. For the same compound, the AC50 under setting [1] is 2.59 µM [falling, single point].
In the case of `Cc1c(NC(=O)c2noc(C(C)C)c2[N+](=O)[O-])c(=O)n(-c2ccccc2)n1C`, the cell number change was -5.7%. Further, the concentration at half-maximal activity (AC50) under setting [1] was 0.00651 µM [falling, full curve, poor fit].
For `CCCCn1nc(C(=O)N(C)CC(=O)Nc2cccc(F)c2)c2ccccc2c1=O`, the cell number change was determined as 50%. Besides, the AC50 under setting [2] was 29.1 µM [rising, single point]. Besides, the half-maximal activity concentration (AC50) under setting [1] was 6.51 µM [falling, partial curve, poor fit].
Regarding `O=C(c1ccco1)N1CCN(C(=S)Nc2ccccc2Cl)CC1`, the cell number change is 9.97%. The AC50 under setting [1] is 6.51 µM [falling, single point].
As to `CC1(NC(=O)Cc2ccc(Cl)c(Cl)c2)CCS(=O)(=O)C1` (stereo not drawn), the cell number change was found to be 12.9%. The half-maximal activity concentration (AC50) under setting [1] was 0.58 µM [falling, single point].
In the case of `CSc1sc(C(=O)Nc2ccc(F)cc2F)c2c1C=CCC2`, the cell number change came to 23.7%. The half-maximal activity concentration (AC50) under setting [1] was 29.1 µM [rising, single point].
With `COc1ccc(Nc2ncnc3c2cnn3Cc2ccccc2)cc1`, the cell number change is -30.8%. For the same compound, under setting [2], the concentration at half-maximal activity (AC50) was 13 µM [falling, partial curve, poor fit].
`O=C(CN1C(=O)NC(Cc2ccccc2)C1=O)Nc1ccc(OC(F)F)cc1` (stereo not drawn): the AC50 was 4.11 µM [falling, single point] under setting [2] and 3.66 µM [falling, partial curve] under setting [1].
Regarding `CCOC(=O)c1cnc(SCC(=O)Nc2ccc3c(c2)OCCO3)nc1N`, the cell number change is -0.369%. The concentration at half-maximal activity (AC50) under setting [1] was 16.4 µM [rising, single point].
For the compound `COc1ccc(CCNC(=O)CSc2nnnn2-c2ccccc2)cc1`, the cell number change is 3.37%.
Take `CCN1CCN(c2ccc(NC(=O)c3cnccn3)cc2)CC1`: the cell number change was -15%. In addition, under setting [2], the half-maximal activity concentration (AC50) was 2.59 µM [rising, partial curve]. Moreover, under setting [1], the AC50 was 2.06 µM [rising, partial curve].
With `COc1ccc(-c2cc(C(=O)NCCc3ccc(S(N)(=O)=O)cc3)c3ccccc3n2)cc1`, the cell number change was -62%.
Consider `O=C(c1cccc(COCC(F)(F)C(F)F)c1)N1CCN(c2ccccc2)CC1`, for which the cell number change is -16.6%. Also, under setting [1], the AC50 is 16.4 µM [rising, partial curve].
On to `CCNC(=O)COC(=O)C1CCN(S(=O)(=O)c2ccc3c(c2)OCCO3)CC1`, for which the cell number change was -3.37%.
On the same count and under the same terms, under `Cc1oc(-c2cccc(Cl)c2)nc1CSc1nc2c(c(=O)[nH]1)CCC2` stands 32.7%.
In the case of `CCOc1cccc(C(=O)NC(c2ccccc2)C(C)C)c1` (stereo not drawn), the cell number change was determined as 22.6%. For the same compound, under setting [1], the AC50 was 3.66 µM [rising, full curve, poor fit].
Consider `Cc1cnc(C(=O)NCC(=O)Nc2ccccc2Br)cn1`, for which the cell number change came to 0.5%. For the same compound, the AC50 under setting [2] is 0.00411 µM [falling, full curve, poor fit].
As to `O=C1CC2(CCCCC2)Oc2ccc(O)cc21`, the cell number change is -28.3%. For the same compound, the concentration at half-maximal activity (AC50) under setting [2] was 0.058 µM [falling, full curve, poor fit]. Further, under setting [1], the AC50 is 0.0326 µM [falling, full curve].
Regarding `Cc1ccccc1NC(=O)/C=C/c1ccc([N+](=O)[O-])s1`, the AC50 under setting [1] was 7.31 µM [falling, partial curve].
For `COC(=O)c1ccc(CNC(=O)COC(=O)C2CC3C=CC2C3)cc1` (stereo not drawn), the cell number change came out at 78.2%. Also, under setting [2], the AC50 was 29.1 µM [rising, single point].
Consider `CC1CCC2(CC1)NC(=O)N(CC(=O)N1CCN(C(=O)c3cccs3)CC1)C2=O` (stereo not drawn), for which the cell number change was -7.05%. In addition, the concentration at half-maximal activity (AC50) under setting [1] is 29.1 µM [rising, single point].
For `CCc1ccc(-c2nn(-c3ccccc3C)cc2C(=O)N2CCN(C3CCS(=O)(=O)C3)CC2)cc1` (stereo not drawn), the cell number change amounted to 2.72%. Also, under setting [1], the AC50 was 29.1 µM [rising, single point].
Consider `CCCCOc1ccc(C(=O)NCC(=O)NCC(c2ccc(OC)cc2)N2CCOCC2)cc1` (stereo not drawn), for which the cell number change is -0.134%. Under setting [1], the AC50 is 3.66 µM [rising, full curve, poor fit].
`CC(=O)N1c2ccc(S(=O)(=O)NCCC(=O)Nc3ccc(OC(F)(F)F)cc3)cc2CC1C` (stereo not drawn): the cell number change was -21.9%. Also, under setting [1], the concentration at half-maximal activity (AC50) is 29.1 µM [falling, single point].
In the case of `COc1ccc(N(CC(=O)NCCSc2ccccn2)S(=O)(=O)c2ccccc2)cc1OC`, the cell number change is -24.8%.
With `CN1CCC(N2CCN(c3cccc(C(F)(F)F)c3)CC2)CC1`, the cell number change is -75.1%. Moreover, under setting [2], the half-maximal activity concentration (AC50) is 29.1 µM [falling, single point].
Take `Cc1ccc(Sc2ccc(C(=O)N(C)C)cc2[N+](=O)[O-])cc1`: the cell number change came to 56.6%. In addition, under setting [2], the concentration at half-maximal activity (AC50) is 0.0366 µM [rising, full curve].
Take `Cn1c(-c2cccc(Br)c2)cnc1NCc1ccccc1O`: the cell number change is 4.91%.
With `Cc1c(N2C(=O)/C(=C3/C(=O)N(C)c4ccccc43)SC2=S)c(=O)n(-c2ccccc2)n1C`, the cell number change was -23.6%. Also, the AC50 under setting [1] was 14.6 µM [falling, partial curve, poor fit].
`Cc1ccc(CCNC(=O)c2nnn(-c3cc(C)cc(C)c3)c2N)cc1`: under setting [1], the AC50 is 0.58 µM [rising, single point].
For `COc1cccc(/C=C(/C(=O)OCC(=O)NC2CCCCCCC2)c2ccccc2)c1`, the cell number change stood at 5.13%. For the same compound, the AC50 under setting [1] is 1.84 µM [rising, full curve].
For `CCCC(=O)OC/C(O)=C(\C#N)c1nc2ccccc2[nH]1`, the cell number change came out at 19.3%. Further, the half-maximal activity concentration (AC50) under setting [1] was 0.794 µM [rising, full curve, poor fit].
With `Cc1ccccc1NC(=O)C1(NC(=O)c2cccc(N3C(=O)CSC3c3ccccc3)c2)CCCCC1` (stereo not drawn), the cell number change is -17.1%.
In the case of `O=c1[nH]cc(S(=O)(=O)N2CCCc3ccccc32)c(=O)[nH]1`, the cell number change is -108%. In addition, the AC50 under setting [2] is 20.6 µM [falling, partial curve].
